This note sets out measurements from US7030162B2, “Treatment of migraine headache” (POZEN Inc., priority 1996, dated 2006).

The series in a line: clinical. Particulars: both, human, in vivo.

SMILES strings stand for the structures.

For orientation: Tmax means the time from dosing to the highest level. For the compound `COc1ccc2cc([C@H](C)C(=O)O)ccc2c1` [naproxen sodium], the Tmax amounted to 1.2 h.
